For assay [1], the target named is T1, rat CGRP (rat) (UniProt P01256).
T1 sequence (peptide, looked up): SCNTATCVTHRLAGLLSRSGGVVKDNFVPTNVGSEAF
The experiment in a line: ELISA. A general note: ELISA stands for enzyme-linked immunosorbent assay.

The target in assay [2] is human CGRP (human) (UniProt P06881). The experiment in a line: ELISA.

These are yes or no findings as the source states them, for the method shown. Some entries that bind do so weakly or less than the wild type.

This is an account of results in patent US20260176358A1.

B1: C28#-CHI (antibody, human IgG1, kappa, V domains shown)
VH: EVQLQQSGPELVKPGASVKISCEASGYTFTDYYMNWVKQSHGKSLEWIGDINPNNGVTTYNQKFKGKATLTVDKSSSTAYMELRSLTSEDSAVYYCASIIIVPDYFDYWGQGTTLTVSS
VL: DIVMTHSQKFMSTSVGDRVSVTCKASQNVGSNVAWYQEKPGQSPKALIYSASYRYSGVPDRFTGSGSGTDFTLTISNVQSEDLAEYFCQQYNSYPYTFGGGTKLEIKR
In the case of B1, the binding entry in assay [1] and in assay [2] was “binds” throughout.

B2: C21H2L2 (antibody, human IgG1, kappa, V domains shown)
VH: EVQLVQSGAEVKKPGASVKVSCKASGYTFTDYYMNWVRQAPGQRLEWIGDINPNQGGTNYNQKFKGRATLTVDKSASTAYMELSSLRSEDTAVYYCASIIIVPNYFDYWGQGTTVTVSS
VL: DIQMTQSPSSLSASVGDRVTITCKASQNVDTNVAWFQQKPGKSPKALIYSASYRYSGVPSRFSGSGSGTDFTLTISSLQPEDFATYYCQQYNNYPYTFGGGTKVEIKR
Regarding B2, the binding entry in assay [1] and in assay [2] was “binds” in each case.

B3: C21H3L1 (antibody, human IgG1, kappa, V domains shown)
VH: EVQLVQSGAEVKKPGASVKVSCKASGYTFTDYYMNWVRQAPGQRLEWMGDINPNSGGTNYNQKFKGRVTITVDKSASTAYMELSSLRSEDTAVYYCASIIIVPNYFDYWGQGTTVTVSS
VL: DIQMTQSPSSLSASVGDRVTITCKASQNVDTNVAWFQQKPGKAPKSLIYSASYRYSGVPSRFSGSGSGTDFTLTISSLQPEDFATYYCQQYNNYPYTFGGGTKVEIKR
Take B3: the binding result in assay [1] and in assay [2] was “binds” throughout.

B4: C21H4L1 (antibody, human IgG1, kappa, V domains shown)
VH: EVQLVQSGAEVKKPGASVKVSCKASGYTFTDYYMNWVRQAPGQRLEWIGDINPNTGGTNYNQKFKGRATLTVDKSASTAYMELSSLRSEDTAVYYCASIIIVPNYFDYWGQGTTVTVSS
VL: DIQMTQSPSSLSASVGDRVTITCKASQNVDTNVAWFQQKPGKAPKSLIYSASYRYSGVPSRFSGSGSGTDFTLTISSLQPEDFATYYCQQYNNYPYTFGGGTKVEIKR
For the molecule B4, the binding result in assay [1] and in assay [2] was “binds” throughout.

B5: C28H6L1 (antibody, human IgG1, kappa, V domains shown)
VH: EVQLVQSGAEVKKPGASVKVSCKASGYTFTDYYMNWVRQAPGQRLEWMGDINPNTGVTTYNQKFKGRVTITVDKSASTAYMELSSLRSEDTAVYYCASIIIVPDYFDYWGQGTTVTVSS
VL: DIQMTQSPSSVSASVGDRVTITCKASQNVGSNVAWYQQKPGKSPKALIYSASYRYSGVPSRFSGSGSGTDFTLTISSLQPEDFATYYCQQYNSYPYTFGGGTKVEIKR
Consider B5, for which the binding entry in assay [1] and in assay [2] was “binds” in each case.

B6: C28H7L1 (antibody, human IgG1, kappa, V domains shown)
VH: EVQLVQSGAEVKKPGASVKVSCKASGYTFTDYYMNWVRQAPGQRLEWIGDINPNTGVTTYNQKFKGRATLTVDKSASTAYMELSSLRSEDTAVYYCASIIIVPDYFDYWGQGTTVTVSS
VL: DIQMTQSPSSVSASVGDRVTITCKASQNVGSNVAWYQQKPGKSPKALIYSASYRYSGVPSRFSGSGSGTDFTLTISSLQPEDFATYYCQQYNSYPYTFGGGTKVEIKR
B6: the binding entry in assay [1] and in assay [2] was “binds” in each case.

B7: C28H4L1 (antibody, human IgG1, kappa, V domains shown)
VH: EVQLVQSGAEVKKPGASVKVSCKASGYTFTDYYMNWVRQAPGQRLEWIGDINPNQGVTTYNQKFKGRATLTVDKSASTAYMELSSLRSEDTAVYYCASIIIVPDYFDYWGQGTTVTVSS
VL: DIQMTQSPSSVSASVGDRVTITCKASQNVGSNVAWYQQKPGKSPKALIYSASYRYSGVPSRFSGSGSGTDFTLTISSLQPEDFATYYCQQYNSYPYTFGGGTKVEIKR
Take B7: the binding entry in assay [1] and in assay [2] was “binds” throughout.

B8: C28H3L1 (antibody, human IgG1, kappa, V domains shown)
VH: EVQLVQSGAEVKKPGASVKVSCKASGYTFTDYYMNWVRQAPGQRLEWMGDINPNQGVTTYNQKFKGRVTITVDKSASTAYMELSSLRSEDTAVYYCASIIIVPDYFDYWGQGTTVTVSS
VL: DIQMTQSPSSVSASVGDRVTITCKASQNVGSNVAWYQQKPGKSPKALIYSASYRYSGVPSRFSGSGSGTDFTLTISSLQPEDFATYYCQQYNSYPYTFGGGTKVEIKR
Turning to B8, the binding result in assay [1] and in assay [2] was “binds” throughout.

B9: C28H1L1 (antibody, human IgG1, kappa, V domains shown)
VH: EVQLVQSGAEVKKPGASVKVSCKASGYTFTDYYMNWVRQAPGQRLEWMGDINPNNVVTTYNQKFKGRVTITVDKSASTAYMELSSLRSEDTAVYYCASIIIVPDYFDYWGQGTTVTVSS
VL: DIQMTQSPSSVSASVGDRVTITCKASQNVGSNVAWYQQKPGKSPKALIYSASYRYSGVPSRFSGSGSGTDFTLTISSLQPEDFATYYCQQYNSYPYTFGGGTKVEIKR
Take B9: the binding entry in assay [1] and in assay [2] was “binds” throughout.

B10: C21H4L2 (antibody, human IgG1, kappa, V domains shown)
VH: EVQLVQSGAEVKKPGASVKVSCKASGYTFTDYYMNWVRQAPGQRLEWIGDINPNTGGTNYNQKFKGRATLTVDKSASTAYMELSSLRSEDTAVYYCASIIIVPNYFDYWGQGTTVTVSS
VL: DIQMTQSPSSLSASVGDRVTITCKASQNVDTNVAWFQQKPGKSPKALIYSASYRYSGVPSRFSGSGSGTDFTLTISSLQPEDFATYYCQQYNNYPYTFGGGTKVEIKR
B10: the binding entry in assay [1] and in assay [2] was “binds” in each case.

B11: C28H2L1 (antibody, human IgG1, kappa, V domains shown)
VH: EVQLVQSGAEVKKPGASVKVSCKASGYTFTDYYMNWVRQAPGQRLEWIGDINPNNVVTTYNQKFKGRATLTVDKSASTAYMELSSLRSEDTAVYYCASIIIVPDYFDYWGQGTTVTVSS
VL: DIQMTQSPSSVSASVGDRVTITCKASQNVGSNVAWYQQKPGKSPKALIYSASYRYSGVPSRFSGSGSGTDFTLTISSLQPEDFATYYCQQYNSYPYTFGGGTKVEIKR
Consider B11, for which the binding entry in assay [1] and in assay [2] was “binds” throughout.

B12: C28H5L1 (antibody, human IgG1, kappa, V domains shown)
VH: EVQLVQSGAEVKKPGASVKVSCKASGYTFTDYYMNWVRQAPGQRLEWIGDINPNSGVTTYNQKFKGRATLTVDKSASTAYMELSSLRSEDTAVYYCASIIIVPDYFDYWGQGTTVTVSS
VL: DIQMTQSPSSVSASVGDRVTITCKASQNVGSNVAWYQQKPGKSPKALIYSASYRYSGVPSRFSGSGSGTDFTLTISSLQPEDFATYYCQQYNSYPYTFGGGTKVEIKR
On to B12, for which the binding entry in assay [1] and in assay [2] was “binds” throughout.
